Source: PubChem BioAssay AID445 (National Center for Advancing Translational Sciences (NCATS), 2006)
This is one part of the list. Shown are side measurements of this screen, not its main read-out; they come without a call. Compounds called inactive in the main read-out are mostly missing here. Words in brackets tell the shape of the fitted curve; partial curves, single points and poor fits give uncertain potencies.

Experiment: IkB Signaling
Settings: ABC-DLBCL IkBa-CBG/CBR dual luciferase ratio (green luciferase fused to IkBa over red control in OCI-Ly3 lymphoma cells), 4 h; measured here: control luc red channel unless noted
In short: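 Luminescence ratio of IκBα-fused green versus native red beetle luciferase in OCI-Ly3 cells, 4 h post-doxycycline with compound; red signal alone, scaled from basal (0%) to zero light (-100%), flagged nonspecific or cytotoxic effects.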

| SMILES | AC50 |
| --- | --- |
| CCN(CC)c1ccc(CN(C(=O)Cc2coc3ccc(C)cc23)C2CCS(=O)(=O)C2)cc1 (centres undefined) | 20 µM [falling, single point] |
| O=C1CC(c2ccccc2)Sc2nc(-c3ccc(F)cc3)nn21 (centres undefined) | 39.8 µM [falling, single point] |
| CCC1CN(C(=O)N2CCC(C(=O)NCCc3ccccc3C)CC2)c2ccccc2O1 (centres undefined) | 12.6 µM [falling, partial curve] |
| COc1ccc(C(=O)Nc2cc(C(C)C)c(O)c(S(=O)(=O)c3ccc(Cl)cc3)c2C)cc1 | 5.01 µM [falling, partial curve] |
| COc1ccc(-c2nc3cc(C(C)C)ccc3o2)cc1NC(=O)COc1ccc(C)cc1C | 15.8 µM [falling, partial curve] |
| O=C(CSCc1cccc(F)c1)N1CCN(c2ccccc2)CC1 | 31.6 µM [falling, single point] |
| O=C(Cn1c(=O)c2ccccc2n(CC(=O)Nc2ccc(F)cc2F)c1=O)NCCc1ccccc1 | 1.58 µM [falling, full curve] |
| CCN(C(=O)c1cc2c(=O)oc3ccc(C)cc3c2s1)c1cc(OC)ccc1OC | 12.6 µM [falling, single point] |
| Cn1cc(C(=O)N2CCN(c3cccc(C(F)(F)F)c3)CC2)c2c3ccccc3n(C)c2c1=O | 20 µM [falling, single point] |
| CC(=O)Nc1ccc(NC(=O)Cn2nc(C(=O)Nc3ccc(C)cc3)ccc2=O)cc1 | 3.16 µM [rising, partial curve, poor fit] |
| CCN(CC)S(=O)(=O)c1ccc2oc(SCc3ccc(F)cc3)nc2c1 | 20 µM [falling, partial curve] |
| CCCOc1ccc(Oc2nc(NCC(C)C)nc(N3CCOCC3)n2)nn1 | 12.6 µM [falling, partial curve] |
| COc1ccccc1N1CCN(c2nc(-c3ccc(C)cc3)nc3ccccc23)CC1 | 39.8 µM [falling, single point] |
| COc1cccc(NC(=O)C2CCCN(S(=O)(=O)c3ccc4[nH]c(=O)ccc4c3)C2)c1 (centres undefined) | 15.8 µM [falling, partial curve] |
| CCCCn1c(=N)n(CC(O)COc2ccc(C)cc2)c2ccccc21 (centres undefined) | 12.6 µM [falling, partial curve] |
| CC(C)Nc1ncnc2c1cnn2-c1ccc(Cl)cc1 | 10 µM [falling, partial curve] |
| COc1ccc(N2CC(NC(=O)c3ccc4c(c3)OCO4)CC2=O)cc1 (centres undefined) | 0.1 µM [rising, full curve, poor fit] |
| COC(=O)Cn1c(=O)c2c(nc3n2CCN3c2ccc(F)cc2)n(C)c1=O | 15.8 µM [falling, partial curve] |
| CSc1ccc(CNC(=O)c2ccc(NC(=O)c3nsc4ccccc34)cc2)cc1 | 0.158 µM [falling, full curve] |
| CCOC(=O)C1CCCN(Cc2nc(N)nc(Nc3ccc(Cl)cc3)n2)C1 (centres undefined) | 10 µM [falling, partial curve] |
| Nc1c(C(=O)Nc2ccccc2)nnn1Cc1ccc(F)cc1Cl | 0.398 µM [rising, full curve] |
| COc1ccc(CNC(=O)c2ccc(=O)oc2)cc1OC | 631 nM [rising, partial curve] [measured here: IkB-luc green channel] |

| SMILES | AC50 |
| --- | --- |
| CCOc1ccccc1C(=O)Nc1nc2c(s1)CC(C)CC2 (centres undefined) | 20 µM [falling, partial curve] |
| COc1cc(NC(=O)COCc2cc(-c3ccc(F)cc3)on2)cc(OC)c1OC | 31.6 µM [falling, single point] |
| COc1cc(-c2nnc(SCc3c(F)cccc3Cl)o2)cc(OC)c1OC | 7.94 µM [falling, full curve, poor fit] |
| Cc1nn(C(C)(C)C)c(OC(=O)C(C)(C)C)c1Sc1ccccc1 | 10 µM [falling, partial curve] |
| Clc1ccc(OCc2nnc(SCc3nc4ccccc4[nH]3)n2Cc2ccco2)cc1 | 7.94 µM [falling, partial curve] |
| Cc1ccsc1CN(C(=O)c1oc2cc(Br)ccc2c1C)C1CCS(=O)(=O)C1 (centres undefined) | 20 µM [falling, single point] |
| Cc1cc(C(=O)Nc2ccc(C(C)C)cc2)c2c(C)nn(-c3ccccc3)c2n1 | 7.94 µM [rising, partial curve] |
| CN(C)CCCN(C(=O)c1ccc2c(c1)OCCO2)c1nc2ccccc2s1 | 15.8 µM [falling, partial curve] |
| COc1cccc(CNC(=O)CSc2c3c(nc4cc(Cl)ccc24)CCCC3)c1 | 39.8 µM [falling, single point] |
| CCc1cccc(NC2c3ccccc3C(=O)N2c2ccc(C)cn2)c1 (centres undefined) | 15.8 µM [falling, partial curve] |
| Cc1cccc2c(=O)cc(CSc3ccccc3NC(=O)c3cccc(F)c3)[nH]c12 | 39.8 µM [falling, partial curve] |
| COc1ccc(NC(=O)Cn2cnc3c(oc4ccccc43)c2=O)cc1OC | 31.6 µM [falling, single point] |
| N#C/C(=C\c1ccc[nH]1)Sc1nc2ccccc2s1 | 25.1 µM [falling, single point] |
| CCCOc1c(Cl)cc(C(=O)N(Cc2cccc(OC)c2)C2CCS(=O)(=O)C2)cc1Cl (centres undefined) | 31.6 µM [falling, partial curve] |
| CCOc1ccc(NC(=O)c2cnc(N3CCCCC3)c3ccccc23)cc1 | 6.31 µM [falling, partial curve] |
| CCOC(=O)c1c(-c2ccccc2)csc1NC(=O)c1cc(-c2ccc(F)cc2)on1 | 25.1 µM [falling, partial curve] |
| CN(c1ccccc1)S(=O)(=O)c1nnc(NC(=O)c2ccccc2)s1 | 0.0126 µM [rising, full curve] |
| Cc1ccc2nc(NC(=O)CNS(=O)(=O)c3ccc(Br)s3)sc2c1 | 31.6 µM [falling, partial curve] |
| Cc1oc(-c2cccc(Cl)c2)nc1CN1CCC(C(=O)NCCCN2CCN(c3cccc(Cl)c3)CC2)CC1 | 25.1 µM [falling, single point] |
| COc1ccc(CCCc2nnc(SCC(=O)Nc3nccs3)n2C)cc1C | 10 µM [falling, partial curve] |
| NC(=O)c1ccsc1NC(=O)CSc1ccccc1F | 15.8 µM [falling, partial curve] |
| CCCCNC(=O)c1[nH]c2ccccc2c1Sc1ccc(C)cc1 | 39.8 µM [falling, single point] |

Structures from the list above that have a Cl atom (9):

| SMILES | AC50 |
| --- | --- |
| COc1ccc(C(=O)Nc2cc(C(C)C)c(O)c(S(=O)(=O)c3ccc(Cl)cc3)c2C)cc1 | 5.01 µM [falling, partial curve] |
| CC(C)Nc1ncnc2c1cnn2-c1ccc(Cl)cc1 | 10 µM [falling, partial curve] |
| CCOC(=O)C1CCCN(Cc2nc(N)nc(Nc3ccc(Cl)cc3)n2)C1 (centres undefined) | 10 µM [falling, partial curve] |
| Nc1c(C(=O)Nc2ccccc2)nnn1Cc1ccc(F)cc1Cl | 0.398 µM [rising, full curve] |
| COc1cc(-c2nnc(SCc3c(F)cccc3Cl)o2)cc(OC)c1OC | 7.94 µM [falling, full curve, poor fit] |
| Clc1ccc(OCc2nnc(SCc3nc4ccccc4[nH]3)n2Cc2ccco2)cc1 | 7.94 µM [falling, partial curve] |
| COc1cccc(CNC(=O)CSc2c3c(nc4cc(Cl)ccc24)CCCC3)c1 | 39.8 µM [falling, single point] |
| CCCOc1c(Cl)cc(C(=O)N(Cc2cccc(OC)c2)C2CCS(=O)(=O)C2)cc1Cl (centres undefined) | 31.6 µM [falling, partial curve] |
| Cc1oc(-c2cccc(Cl)c2)nc1CN1CCC(C(=O)NCCCN2CCN(c3cccc(Cl)c3)CC2)CC1 | 25.1 µM [falling, single point] |

Continued.

| SMILES | AC50 |
| --- | --- |
| Cc1ccc(C2c3[nH]c4ccccc4c3CCN2C(=O)Nc2ccc(C)c(C)c2)cc1 (centres undefined) | 7.94 µM [falling, partial curve] |
| O=C(NCCc1ccc(Cl)cc1)c1ccc(CSCc2ccccc2Cl)o1 | 25.1 µM [falling, single point] |
| CC(=O)c1cccc(NC(=O)c2nc(-c3ccc(C)cc3)n3c2CCCCC3)c1 | 1 µM [rising, single point] |
| Cc1ccc(NC(=O)C(=O)NCc2ccc(Cl)cc2)cc1 | 0.316 µM [falling, full curve] |
| CCc1ccc2nc(N3CCC(C(=O)O)CC3)sc2c1 | 0.794 µM [falling, partial curve] |
| Cc1c(Cl)cccc1-n1c(CCC(=O)O)ccc1-c1cccs1 | 25.1 µM [falling, partial curve] |
| COc1ccc(Br)cc1CNC(=O)C(C)n1nc(C)n2c(cc3occc32)c1=O (centres undefined) | 25.1 µM [falling, single point] |
| CCCCN(CCCC)S(=O)(=O)c1ccc(OC)c2ncccc12 | 10 µM [falling, partial curve] |
| CCc1cccc(NC(=O)CN2C(=O)CCc3cc(S(=O)(=O)N4CCOCC4)ccc32)c1 | 20 µM [falling, partial curve] |
| Cc1ccc(CN2CCSc3ccc(C(=O)Nc4ccc(F)cc4F)cc32)cc1 | 10 µM [falling, partial curve] |
| COc1cccc2c1C(=O)c1c(O)c3c(c(O)c1C2=O)C[C@@](O)(C(=O)CO)C[C@H]3O[C@H]1C[C@@H](N)[C@H](O)[C@@H](C)O1.[W] | 2.51 µM [falling, partial curve] |
| Cc1cc(=O)n(CC(=O)NCCC(C)C)c2c1c(C)nn2C | 3.98 µM [rising, single point] |
| Cc1sc2nc(CN(Cc3cccs3)C(=O)NC3CCCCC3)[nH]c(=O)c2c1C | 39.8 µM [falling, single point] |
| Cc1ccc(C)c(S(=O)(=O)c2cnc(SCC(=O)Nc3ccc(F)cc3F)[nH]c2=O)c1 | 39.8 µM [falling, partial curve] |
| CCN(CC)CCNC(=O)C1CCCN(c2ncnc3onc(C)c23)C1 (centres undefined) | 1.26 µM [falling, full curve, poor fit] |
| Cc1ccc(C)c(-c2csc(-c3c(N)c(C(=O)c4ccc5c(c4)OCO5)n4ccccc34)n2)c1 | 0.631 µM [falling, full curve] |
| Cc1cccc(NC(=O)Cn2c(=O)oc3cc(S(=O)(=O)NCc4ccccc4)ccc32)c1 | 20 µM [falling, partial curve] |
| Cc1ccc2nc(N(Cc3cccnc3)C(=O)C3CCCCC3)sc2c1 | 3.16 µM [falling, partial curve] |
| COc1ccc(NC(c2ccc(F)cc2)c2nnc(-c3ccccc3Cl)o2)cc1Cl (centres undefined) | 7.94 µM [falling, full curve, poor fit] |
| O=C(c1ccco1)N1CCN(c2ncnc3c2[nH]c2ccc(Br)cc23)CC1 | 25.1 µM [falling, partial curve] |

Random excerpt: 2 compounds from above.

| SMILES | AC50 |
| --- | --- |
| Cc1ccc(NC(=O)C(=O)NCc2ccc(Cl)cc2)cc1 | 0.316 µM [falling, full curve] |
| Cc1ccc(CN2CCSc3ccc(C(=O)Nc4ccc(F)cc4F)cc32)cc1 | 10 µM [falling, partial curve] |
